Record: PubChem BioAssay AID1259424 (University of Nebraska Medical Center, 2018)
Test: 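Rank knockdowns across the genome by resemblance to the KSR1 depletion profile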 (primary screen). Cells: human HCT116 colon cancer cells. Reagent: siRNA pool against human genes, 50 nM. Read-out: 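Six signature mRNAs by branched-DNA multiplex assay, scaled to two housekeeping genes and non-targeting median, log2; matched to mean KSR1 knockdown profile by Pearson correlation and euclidean distance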. Scale: mean correlation with KSR1 profile: higher = expression change more like KSR1 knockdown.
Here is one part, drawn at random, of about 14,000 reagents. 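Higher correlation or smaller distance means closer resemblance to KSR1 loss; control wells, including KSR1 knockdowns, recur on many plates.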 Not all columns of the deposit are shown. No sequences are given here. Not stated in the record: the time to read-out.

FOXO1 [SID363993226] showed mean correlation with KSR1 profile 0.0357.
For ADAM32 [SID364004634], the entry reads mean correlation with KSR1 profile 0.23.
Depletion of ZNF93 [SID364003556] resulted in: mean correlation with KSR1 profile 0.0576.
With knock-down of SNRNP25 [SID364002877], the record shows mean correlation with KSR1 profile 0.127.
HNRNPDL [SID363996367] showed mean correlation with KSR1 profile -0.383.
Against MAPKAPK5 [SID363994743], the entry reads mean correlation with KSR1 profile -0.196.
KIFC2 [SID364004671] scored mean correlation with KSR1 profile 0.166.
After knock-down of GCNT4 [SID364000220], the screen gave mean correlation with KSR1 profile 0.123.
NUDCD3 [SID363999422] showed mean correlation with KSR1 profile 0.38.
After knock-down of KHSRP [SID363994760], the screen gave mean correlation with KSR1 profile -0.527.
Against CPA5 [SID364004481] the deposit lists mean correlation with KSR1 profile -0.551.
Silencing of GRPEL1 [SID364003304] came out at: mean correlation with KSR1 profile 0.216.
